Experimental data published in article PMC6588558.

Biological target: protein G-related A2M-binding protein (GRAB) (S. pyogenes) (UniProt Q7DAL7)
Experiment: affinity purification with mass spectrometry; AP-DIA: 10 μg affinity-tagged bait on Strep-Tactin Sepharose beads, pooled normal human plasma (100 μl) or saliva (200 μl), 37 °C, 1 h, washed with ice-cold PBS, eluted with biotin; DIA-MS; sfGFP as negative control; only the target purified

B1: alpha-2-macroglobulin (protein, UniProt P01023 24-1474)
chain: SVSGKPQYMVLVPSLLHTETTEKGCVLLSYLNETVTVSASLESVRGNRSLFTDLEAENDVLHCVAFAVPKSSSNEEVMFLTVQVKGPTQEFKKRTTVMVKNEDSLVFVQTDKSIYKPGQTVKFRVVSMDENFHPLNELIPLVYIQDPKGNRIAQWQSFQLEGGLKQFSFPLSSEPFQGSYKVVVQKKSGGRTEHPFTVEEFVLPKFEVQVTVPKIITILEEEMNVSVCGLYTYGKPVPGHVTVSICRKYSDASDCHGEDSQAFCEKFSGQLNSHGCFYQQVKTKVFQLKRKEYEMKLHTEAQIQEEGTVVELTGRQSSEITRTITKLSFVKVDSHFRQGIPFFGQVRLVDGKGVPIPNKVIFIRGNEANYYSNATTDEHGLVQFSINTTNVMGTSLTVRVNYKDRSPCYGYQWVSEEHEEAHHTAYLVFSPSKSFVHLEPMSHELPCGHTQTVQAHYILNGGTLLGLKKLSFYYLIMAKGGIVRTGTHGLLVKQEDMKGHFSISIPVKSDIAPVARLLIYAVLPTGDVIGDSAKYDVENCLANKVDLSFSPSQSLPASHAHLRVTAAPQSVCALRAVDQSVLLMKPDAELSASSVYNLLPEKDLTGFPGPLNDQDNEDCINRHNVYINGITYTPVSSTNEKDMYSFLEDMGLKAFTNSKIRKPKMCPQLQQYEMHGPEGLRVGFYESDVMGRGHARLVHVEEPHTETVRKYFPETWIWDLVVVNSAGVAEVGVTVPDTITEWKAGAFCLSEDAGLGISSTASLRAFQPFFVELTMPYSVIRGEAFTLKATVLNYLPKCIRVSVQLEASPAFLAVPVEKEQAPHCICANGRQTVSWAVTPKSLGNVNFTVSAEALESQELCGTEVPSVPEHGRKDTVIKPLLVEPEGLEKETTFNSLLCPSGGEVSEELSLKLPPNVVEESARASVSVLGDILGSAMQNTQNLLQMPYGCGEQNMVLFAPNIYVLDYLNETQQLTPEIKSKAIGYLNTGYQRQLNYKHYDGSYSTFGERYGRNQGNTWLTAFVLKTFAQARAYIFIDEAHITQALIWLSQRQKDNGCFRSSGSLLNNAIKGGVEDEVTLSAYITIALLEIPLTVTHPVVRNALFCLESAWKTAQEGDHGSHVYTKALLAYAFALAGNQDKRKEVLKSLNEEAVKKDNSVHWERPQKPKAPVGHFYEPQAPSAEVEMTSYVLLAYLTAQPAPTSEDLTSATNIVKWITKQQNAQGGFSSTQDTVVALHALSKYGAATFTRTGKAAQVTIQSSGTFSSKFQVDNNNRLLLQQVSLPELPGEYSMKVTGEGCVYLQTSLKYNILPEKEEFPFALGVQTLPQTCDEPKAHTSFQISLSVSYTGSRSASNMAIVDVKMVSGFIPLKPTVKMLERSNHVSRTEVSSNHVLIYLDKVSNQTLSLFFTVLQDVPVRDLKPAIVKVYDYYETDEFAIAEYNAPCSKDLGNA
binding: binds

Results are given in words; binding and its absence hold for the method and conditions named. Binding seen in cells or lysates may run through a third protein. Here binding means that the protein was enriched with, or labelled near, the bait; the list need not be complete.
